Data taken from US20260193366A1 (APOGEE THERAPEUTICS, published 2026).
These are yes or no findings as the source states them, for the method shown. Some results given as binding are weak or reduced against the parent protein; the word gives no strength.

Protein sequences, listed by entry. Tags and fused reporters are not part of them. Lines headed by an entry give the natural chain unless they say otherwise; changes in a name come on top.
UniProt P78552: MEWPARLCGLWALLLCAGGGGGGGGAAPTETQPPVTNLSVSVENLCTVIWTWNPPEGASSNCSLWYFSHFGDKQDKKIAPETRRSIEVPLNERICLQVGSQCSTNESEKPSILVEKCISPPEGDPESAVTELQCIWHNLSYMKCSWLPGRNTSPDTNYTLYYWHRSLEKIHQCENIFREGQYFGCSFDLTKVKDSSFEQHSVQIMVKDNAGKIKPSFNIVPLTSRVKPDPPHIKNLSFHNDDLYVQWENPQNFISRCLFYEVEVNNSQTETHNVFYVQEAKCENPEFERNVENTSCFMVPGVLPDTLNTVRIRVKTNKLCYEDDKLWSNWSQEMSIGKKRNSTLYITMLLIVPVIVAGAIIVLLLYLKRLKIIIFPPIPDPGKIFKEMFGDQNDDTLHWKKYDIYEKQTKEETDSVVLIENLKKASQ

Columns and labels:
[1] = molecular target: hIL-13Rα/hIL-4Rα on HEK293 cells (human) (UniProt P78552); assay: FACS blocking assay: antibody pre-mixed with biotinylated hIL-4 (0.04 ug/mL), binding to HEK293 cells stably expressing hIL-13Rα and hIL-4Rα, detected with Alexa Fluor 488 streptavidin; y axis % inhibition of IL-4 binding
[2] = molecular target: hIL-13Rα/hIL-4Rα on HEK293 cells (human) (UniProt P78552); assay: FACS blocking assay: antibody pre-mixed with biotinylated hIL-13 (0.05 ug/mL), binding to HEK293 cells stably expressing hIL-13Rα and hIL-4Rα, detected with Alexa Fluor 488 streptavidin; y axis % inhibition of IL-13 binding

B1: Construct 31 (mAb443) with IgG1 YTE LALA heavy chain constant region (antibody, V domains shown)
VH: EVQLVESGGGLEQPGGSLRLSCAGSGFTFRDFAMTWVRQAPGKGLEWVSSISGSGGNIYYADSVKGRFTISRDNSKNTLYLQMNSLRAEDTAVYYCAKDRLSVTVRPRYYGLDVWGQGTTVTVSS
VL: DIVMTQSPLSLPVTPGEPASISCRSSQSLLYSNGYNYLDWYLQKSGQSPQLLIYLGSNRASGVPDRFSGSGSGTDFTLKISRVEAEDVGFYYCMQALQAPYTFGQGTKLEIK
Q: With B1 as the binder, how does the binding [1] read?
A: binds

Q: What about the binding [2] of the same binder?
A: binds
